No constants are given. Whether binding was seen depends on the method and setting. Some results given as binding are weak or reduced against the parent protein; the word gives no strength.
B1: 抗人PDL1纳米抗体 Nb3 (VHH, not shown: small tags and cut ends)
VHH: QVQLQESGGGSVQAGGSLRLSCIASGDDYNLKTDRMVWFRPVPEKEREGVASIYTYNNTTYYADSVKGRFTISQDIGKNTVYLQMNSLKPEDTATYYCARDWSFSSGMLHKNMYKYWGQGTHVTVSS
B2: 抗人PDL1纳米抗体 Nb1 (VHH, not shown: small tags and cut ends)
VHH: QVQLQESGGGSAQAGGSLRLSCEVSGDTSSLNILGWFRQAPGKEREGVAGIYTDAGTPTYTYADSVKGRFAFSRDNGQNTVYLEMSSLKPEDTAMYYCAAGTMPVRAATLRPARYIYWGQGTQVTVSS
B3: 抗人PDL1纳米抗体 Nb5 (VHH, not shown: small tags and cut ends)
VHH: QVQLQESGGGSVQPGGSLRLSCEVSGDTSTLNILGWFRQTPGKEREGVAGIYFAAGTPTYTYADSVKGRFALSRDNGQNTVYLEMSSLKPEDTAMYYCAAGTMPVRAATLRPARYTYWGQGTQVTVSS
B4: 抗人PDL1纳米抗体 Nb4 (VHH, not shown: small tags and cut ends)
VHH: QVQLQESGGGSVQAGGSLKLSCTASGYTSGILYMAWFRQAPGKEREAVGCIYPSGRSTVYAVPVEGRFTMSRENRQNTVYLQMDSLKAEDTAVYYCGARPQSCGAPVSTVDYWGQGTQVTVSS
B5: 抗人PDL1纳米抗体 Nb2 (VHH, not shown: small tags and cut ends)
VHH: QVQLQESGGGSVQAGGSLRLSCIASGVDYNSRTDRMAWFRQVPGKEREGVAAIYTYNNRTYYADSVKGRFTISQDIGKNTVYLQMNSLEPEDTATYYCARDWRFSSGMLDKNMYKYWGQGTQVTVSS

Protein sequences, listed by entry. Tags and fused reporters are not part of them. Residues count along the entry.
UniProt Q9NZQ7, residues 19-239: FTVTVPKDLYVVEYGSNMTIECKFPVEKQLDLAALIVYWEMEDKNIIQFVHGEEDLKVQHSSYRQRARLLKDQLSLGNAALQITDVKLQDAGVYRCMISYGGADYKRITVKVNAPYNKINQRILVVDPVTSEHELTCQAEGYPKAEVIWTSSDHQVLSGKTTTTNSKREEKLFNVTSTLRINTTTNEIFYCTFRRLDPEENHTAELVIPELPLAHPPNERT

These binders were tested against 人PDL1蛋白 (human) (UniProt Q9NZQ7) (assay: indirect ELISA, PDL1 coated at 1 ug/mL, nanobody 1 ug/mL, anti-HA detection).

binding, binds:
B1
B2
B3
B4
B5
